Assay results: article doi:10.1101/2021.12.14.472599
Substitutions are numbered along the chain they refer to. No constants are given. Whether binding was seen depends on the method and setting. Some entries that bind do so weakly or less than the wild type. Tags and fused reporters may be left off the sequences shown.

Legend:
[1] = molecular target: T1, GsSir2 protein (Sir2-APAZ subunit of the GsSir2/Ago system), N-terminal His6-tagged (Geobacter sulfurreducens) (UniProt Q74DF6); test: SEC
T1 sequence: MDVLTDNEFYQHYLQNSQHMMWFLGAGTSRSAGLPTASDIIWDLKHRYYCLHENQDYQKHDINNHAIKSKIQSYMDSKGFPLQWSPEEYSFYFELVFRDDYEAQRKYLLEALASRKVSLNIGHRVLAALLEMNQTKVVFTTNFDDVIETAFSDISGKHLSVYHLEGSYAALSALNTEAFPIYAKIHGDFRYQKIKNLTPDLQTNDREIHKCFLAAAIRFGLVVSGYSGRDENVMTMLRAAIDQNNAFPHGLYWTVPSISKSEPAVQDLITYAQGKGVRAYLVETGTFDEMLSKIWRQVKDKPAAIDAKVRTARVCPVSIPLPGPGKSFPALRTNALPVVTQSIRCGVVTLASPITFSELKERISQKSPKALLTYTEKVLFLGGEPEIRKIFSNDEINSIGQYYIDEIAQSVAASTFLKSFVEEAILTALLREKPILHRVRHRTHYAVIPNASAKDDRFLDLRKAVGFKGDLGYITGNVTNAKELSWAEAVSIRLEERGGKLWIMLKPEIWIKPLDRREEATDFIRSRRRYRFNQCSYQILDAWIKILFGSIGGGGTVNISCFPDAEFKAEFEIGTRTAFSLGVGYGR

[2] = molecular target: T2, GsSir2(D230A), N-terminal His6-tagged (Geobacter sulfurreducens) (UniProt Q74DF6); test: SEC
T2 sequence: T1 sequence with D230A

[3] = molecular target: T1, GsSir2 protein (Sir2-APAZ subunit of the GsSir2/Ago system), N-terminal His6-tagged (Geobacter sulfurreducens); test: co-purification on a Ni2+-affinity column
[4] = molecular target: T1, GsSir2 protein (Sir2-APAZ subunit of the GsSir2/Ago system), N-terminal His6-tagged (Geobacter sulfurreducens); test: SAXS
[5] = molecular target: T1, GsSir2 protein (Sir2-APAZ subunit of the GsSir2/Ago system), N-terminal His6-tagged (Geobacter sulfurreducens); test: SEC-MALS
[6] = molecular target: T1, GsSir2 protein (Sir2-APAZ subunit of the GsSir2/Ago system), N-terminal His6-tagged (Geobacter sulfurreducens); test: mass photometry
[7] = molecular target: T3, GsSir2 protein of the GsSir2/Ago-HSH variant (no tag on Sir2) (Geobacter sulfurreducens) (UniProt Q74DF6); test: SEC
T3 sequence: T1 sequence

Measured: binding

GsAgo protein (short pAgo of the GsSir2/Ago system) (from UniProt Q74DF5 1-473)
not listed: [7]
binds: all other assays above

GsAgo protein with a C-terminal His6-StrepII-His6-tag (HSH-tag) (from UniProt Q74DF5 1-473)
binds: [7]
